For at least one entry, the source does not settle the construct or the ends of the probe. Results from cells or extracts need not show a direct contact.

Amino acid sequences for entries named in this document (tags omitted). A change or cut given only in a name is not applied to a line headed by its entry.
UniProt P15941: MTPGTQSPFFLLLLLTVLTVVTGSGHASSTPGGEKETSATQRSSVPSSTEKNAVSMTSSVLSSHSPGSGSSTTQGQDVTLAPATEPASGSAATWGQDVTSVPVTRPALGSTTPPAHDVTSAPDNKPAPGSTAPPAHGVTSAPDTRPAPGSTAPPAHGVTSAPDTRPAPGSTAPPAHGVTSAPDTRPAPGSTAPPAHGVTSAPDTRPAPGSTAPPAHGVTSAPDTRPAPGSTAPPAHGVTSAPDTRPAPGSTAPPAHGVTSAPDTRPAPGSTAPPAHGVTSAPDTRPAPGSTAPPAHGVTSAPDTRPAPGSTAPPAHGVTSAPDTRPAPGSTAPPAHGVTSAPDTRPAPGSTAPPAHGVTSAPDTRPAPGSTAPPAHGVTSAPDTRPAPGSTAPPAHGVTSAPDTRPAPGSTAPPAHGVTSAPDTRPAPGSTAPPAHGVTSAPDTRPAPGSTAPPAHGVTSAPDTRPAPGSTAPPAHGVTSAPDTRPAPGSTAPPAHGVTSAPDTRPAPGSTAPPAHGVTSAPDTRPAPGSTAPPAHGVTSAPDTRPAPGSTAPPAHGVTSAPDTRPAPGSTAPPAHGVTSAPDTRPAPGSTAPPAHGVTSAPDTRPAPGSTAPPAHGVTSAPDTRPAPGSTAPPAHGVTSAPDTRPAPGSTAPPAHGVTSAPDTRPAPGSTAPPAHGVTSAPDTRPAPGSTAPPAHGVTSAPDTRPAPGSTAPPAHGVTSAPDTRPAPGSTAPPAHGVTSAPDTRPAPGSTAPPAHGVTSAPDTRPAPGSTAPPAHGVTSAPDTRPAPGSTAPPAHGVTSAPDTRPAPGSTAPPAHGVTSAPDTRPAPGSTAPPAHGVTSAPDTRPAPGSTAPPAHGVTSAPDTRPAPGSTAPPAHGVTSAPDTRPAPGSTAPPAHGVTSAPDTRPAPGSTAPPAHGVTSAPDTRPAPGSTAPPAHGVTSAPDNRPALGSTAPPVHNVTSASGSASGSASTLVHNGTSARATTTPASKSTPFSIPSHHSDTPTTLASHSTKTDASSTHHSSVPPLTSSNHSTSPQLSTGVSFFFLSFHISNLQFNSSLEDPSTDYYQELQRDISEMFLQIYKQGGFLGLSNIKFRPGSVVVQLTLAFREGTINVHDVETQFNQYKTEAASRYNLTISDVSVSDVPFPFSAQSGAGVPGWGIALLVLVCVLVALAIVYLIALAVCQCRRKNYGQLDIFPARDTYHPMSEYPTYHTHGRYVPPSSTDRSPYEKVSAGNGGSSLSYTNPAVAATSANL

The target of the series is MUC1 (native, on MCF-7 cell membrane) (human (MCF-7 cells)) (UniProt P15941). Description: cell binding, LDI-MS of Au cluster ions. The following applies: multivalent Au NP/GO conjugate on MCF-7 cells; 5'-thiol; Probe assembled in 5 mM sodium phosphate pH 7.4, then PBS (10 mM sodium phosphate, 140 mM NaCl, 2.70 mM KCl, pH 7.6), room temperature; protein on the cell surface; single-stranded DNA.

Regarding “TTTTTTTTTTTTTTTGCAGTTGATCCTTTGGATACCCTGG [5'-thiol-T15-AptMUC1 on Au NPs/GO]”, the binding result is reported as “binds”.

Source of the values: paper PMC4431351.
